Publication PMC12022016
Results are given in words; binding and its absence hold for the method and conditions named. Binding seen in cells or lysates may run through a third protein. Some entries that bind do so weakly or less than the wild type.

By UniProt entry, the sequences of proteins in these tests, tags left out. Where a name states a change or a piece, a line headed by the entry shows the natural chain unless it says otherwise.
UniProt Q01105: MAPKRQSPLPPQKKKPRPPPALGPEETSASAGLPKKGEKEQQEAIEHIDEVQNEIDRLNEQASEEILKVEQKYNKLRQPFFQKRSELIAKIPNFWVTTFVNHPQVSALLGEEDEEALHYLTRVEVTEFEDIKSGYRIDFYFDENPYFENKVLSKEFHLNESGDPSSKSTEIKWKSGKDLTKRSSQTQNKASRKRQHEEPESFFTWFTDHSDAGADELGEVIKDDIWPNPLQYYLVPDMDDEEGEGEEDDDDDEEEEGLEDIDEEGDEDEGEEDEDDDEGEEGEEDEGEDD
UniProt P62714: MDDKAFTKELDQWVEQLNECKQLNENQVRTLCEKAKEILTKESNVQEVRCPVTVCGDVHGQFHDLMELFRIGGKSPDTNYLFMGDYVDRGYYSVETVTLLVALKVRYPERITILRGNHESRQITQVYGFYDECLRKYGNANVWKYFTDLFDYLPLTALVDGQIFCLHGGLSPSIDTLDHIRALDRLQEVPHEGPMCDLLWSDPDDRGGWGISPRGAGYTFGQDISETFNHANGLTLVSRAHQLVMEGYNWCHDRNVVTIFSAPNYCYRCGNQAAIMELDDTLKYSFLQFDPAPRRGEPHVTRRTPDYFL
UniProt P30153: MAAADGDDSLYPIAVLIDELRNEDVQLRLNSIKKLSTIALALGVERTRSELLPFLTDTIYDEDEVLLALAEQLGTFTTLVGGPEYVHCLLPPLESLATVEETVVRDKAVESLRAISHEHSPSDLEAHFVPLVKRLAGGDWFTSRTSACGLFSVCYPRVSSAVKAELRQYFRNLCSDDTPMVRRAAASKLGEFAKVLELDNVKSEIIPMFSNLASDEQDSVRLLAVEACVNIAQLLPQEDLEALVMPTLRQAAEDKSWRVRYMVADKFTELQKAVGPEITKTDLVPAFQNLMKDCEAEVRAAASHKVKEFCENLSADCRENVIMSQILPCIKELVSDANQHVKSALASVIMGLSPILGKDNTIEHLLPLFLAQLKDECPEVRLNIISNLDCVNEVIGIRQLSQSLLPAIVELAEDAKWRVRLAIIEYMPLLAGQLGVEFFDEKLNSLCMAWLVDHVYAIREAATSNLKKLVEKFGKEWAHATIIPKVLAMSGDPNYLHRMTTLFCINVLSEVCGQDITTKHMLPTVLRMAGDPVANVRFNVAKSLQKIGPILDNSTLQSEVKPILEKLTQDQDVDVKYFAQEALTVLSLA

What was measured:
[1] = target: SET (human) (UniProt Q01105); assay: co-IP; LO2 cells with or without TTC36 knockout, and with Ttc36 re-expressed; immunoprecipitation with GFP magnetic beads, immunoblotting
[2] = target: T1, TTC36 (human) (UniProt A6NLP5); assay: co-IP; HEK-293T cells and LO2 cells transfected with the specified plasmids (Ttc36 overexpression); immunoprecipitation with GFP magnetic beads, immunoblotting
T1 sequence: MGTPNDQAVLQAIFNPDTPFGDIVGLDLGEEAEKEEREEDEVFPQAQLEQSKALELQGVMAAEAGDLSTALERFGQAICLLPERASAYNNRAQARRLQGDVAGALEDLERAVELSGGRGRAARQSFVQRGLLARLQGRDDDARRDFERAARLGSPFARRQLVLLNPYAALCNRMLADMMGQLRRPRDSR

Row | Substance | binding [1] | binding [2]
1 | PP2ACB (from UniProt P62714 1-309) | binds | –
2 | PPP2R1A (from UniProt P30153 1-589) | binds | binds
3 | SET (from UniProt Q01105-1 1-290) | – | binds
